These are yes or no findings as the source states them, for the method shown. Binding seen in cells or lysates may run through a third protein. Some results given as binding are weak or reduced against the parent protein; the word gives no strength.
Experiments:
[1] = molecular target: ARF1 R99C (pCMV6-hARF1-R99C-myc-FLAG) (human) (UniProt P84077); assay: co-IP
[2] = molecular target: ARF1 WT (pCMV6-hARF1-myc-FLAG) (human) (UniProt P84077); assay: co-IP

Sequences of proteins named here, by UniProt entry; tags and fusion partners are left off. A change or cut given only in a name is not applied to a line headed by its entry.
UniProt P84077: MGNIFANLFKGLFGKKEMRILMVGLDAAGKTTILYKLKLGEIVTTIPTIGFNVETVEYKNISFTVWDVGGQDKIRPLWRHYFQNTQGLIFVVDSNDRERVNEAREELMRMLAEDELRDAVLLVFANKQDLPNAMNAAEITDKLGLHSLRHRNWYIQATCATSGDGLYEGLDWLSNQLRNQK

| Substance | binding [1] | binding [2] |
| --- | --- | --- |
| ARF1 R99C (pCMV6-hARF1-R99C-myc-FLAG) (from UniProt P84077 1-181) (enzyme) | binds |  |
| ARF1 WT (pCMV6-hARF1-myc-FLAG) (from UniProt P84077 1-181) (enzyme) |  | binds |
